Where two headings read alike, the source gives them in different places. At least one structure is not confirmed: it was looked up by name or label, or the drawing left a doubt.
How the values were obtained:
TT MTC xenografts = test: Chemotherapy of TT MTC xenografts in nude mice; type: in vivo, human
[1] = tested on: TT (human medullary thyroid) tumor cells; type: in vivo; settings: previous study, FIG. 1A

## CN(C)/N=N/c1[nH]cnc1C(N)=O [DTIC, dacarbazine]
TT MTC xenografts; doses of FIG. 3
  growth inhibition of TT xenografts, drug given individually: significant growth inhibition
TT MTC xenografts; individual drugs
  Log rank analysis of survival versus the untreated group: significant difference
[1]; DTIC 25 μg days 2, 3, 4
  anti-tumor effect on TT tumor growth: not effective
[1]; DTIC 100 μg days 2, 3, 4, hMN-14 250 μg day 2 then weekly
  anti-tumor effect on TT tumor growth: too strong a response

Source: patent US8778342B2, “Antibody therapy” (Immunomedics, Inc., priority 2002, dated 2014)
